{"source": "PubChem BioAssay AID743121 (NCATS, 2013)", "assay": "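Partners whose loss is lethal together with topoisomerase I blockade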 (primary screen)", "cells": "MDA-MB-231 cells, a human breast cancer line", "reagents": "single siRNA against human genes, 20 nM siRNA (0.8 pmol per well)", "timing": "120 h (drug added 48 h after transfection, read 72 h later)", "conditions": "camptothecin 20 nM (about EC30) for 72 h; vehicle 0.1% DMSO in parallel plates", "measurement": "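CellTiter-Glo ATP signal, scaled to control siRNA as percent viability; sensitisation given as log2 of untreated divided by camptothecin-treated viability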", "scale": "log2 vehicle/camptothecin viability: higher = stronger sensitisation to camptothecin; viability with camptothecin: higher = more viable cells", "units": "viability with camptothecin in % of control", "active means": "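Active genes have an RSA gene-level p-value below 0.001, computed from the ratios of their separate siRNAs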", "note": "Shown is an unselected part of about 26,000 deposited reagents. 167 of them (0.63%) were called active. 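Calls are per gene from RSA p-values that are not deposited; an individual active-marked siRNA can sensitise only weakly.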 Unmarked entries are inactive. Further read-outs or replicates are left out here."}
{"gene": "PROC (GeneID 5624)", "PubChem SID": "SID164382944", "log2 vehicle/camptothecin viability": -0.313, "viability with camptothecin": 92.6}
{"gene": "PROC (GeneID 5624)", "PubChem SID": "SID164382945", "log2 vehicle/camptothecin viability": 0.0953, "viability with camptothecin": 53.8}
{"gene": "PROC (GeneID 5624)", "PubChem SID": "SID164382950", "log2 vehicle/camptothecin viability": -0.087, "viability with camptothecin": 32.3}
{"gene": "LPO (GeneID 4025)", "PubChem SID": "SID164374115", "log2 vehicle/camptothecin viability": 0.0344, "viability with camptothecin": 75.5}
{"gene": "LPO (GeneID 4025)", "PubChem SID": "SID164374117", "log2 vehicle/camptothecin viability": -0.0446, "viability with camptothecin": 89}
{"gene": "LPO (GeneID 4025)", "PubChem SID": "SID164374118", "log2 vehicle/camptothecin viability": -0.31, "viability with camptothecin": 102}
{"gene": "LPO (GeneID 4025)", "PubChem SID": "SID164374119", "log2 vehicle/camptothecin viability": -0.201, "viability with camptothecin": 68.1}
{"gene": "HAT1 (GeneID 8520)", "PubChem SID": "SID164398151", "log2 vehicle/camptothecin viability": -0.482, "viability with camptothecin": 72.8}
{"gene": "HAT1 (GeneID 8520)", "PubChem SID": "SID164398153", "log2 vehicle/camptothecin viability": 0.218, "viability with camptothecin": 65.1}
{"gene": "HAT1 (GeneID 8520)", "PubChem SID": "SID164398156", "log2 vehicle/camptothecin viability": -0.0569, "viability with camptothecin": 56.1}
{"gene": "HAT1 (GeneID 8520)", "PubChem SID": "SID164398157", "log2 vehicle/camptothecin viability": -0.407, "viability with camptothecin": 75.3}
{"gene": "TJP1 (GeneID 7082)", "PubChem SID": "SID164391877", "log2 vehicle/camptothecin viability": -0.401, "viability with camptothecin": 30.5}
{"gene": "TJP1 (GeneID 7082)", "PubChem SID": "SID164391879", "log2 vehicle/camptothecin viability": -0.115, "viability with camptothecin": 106}
{"gene": "TJP1 (GeneID 7082)", "PubChem SID": "SID164391882", "log2 vehicle/camptothecin viability": 0.0429, "viability with camptothecin": 72.3}
{"gene": "TJP1 (GeneID 7082)", "PubChem SID": "SID164391883", "log2 vehicle/camptothecin viability": -0.29, "viability with camptothecin": 43.8}
{"gene": "CACNB1 (GeneID 782)", "PubChem SID": "SID164356233", "log2 vehicle/camptothecin viability": -0.161, "viability with camptothecin": 90.5}
{"gene": "CACNB1 (GeneID 782)", "PubChem SID": "SID164356237", "log2 vehicle/camptothecin viability": 1.26, "viability with camptothecin": 16.7}
{"gene": "CACNB1 (GeneID 782)", "PubChem SID": "SID164356238", "log2 vehicle/camptothecin viability": 0.736, "viability with camptothecin": 46.9}
{"gene": "CACNB1 (GeneID 782)", "PubChem SID": "SID164356239", "log2 vehicle/camptothecin viability": 0.0271, "viability with camptothecin": 89.9}

Records listed so far whose target name begins with C or c:
{"gene": "CACNB1 (GeneID 782)", "PubChem SID": "SID164356233", "log2 vehicle/camptothecin viability": -0.161, "viability with camptothecin": 90.5}
{"gene": "CACNB1 (GeneID 782)", "PubChem SID": "SID164356237", "log2 vehicle/camptothecin viability": 1.26, "viability with camptothecin": 16.7}
{"gene": "CACNB1 (GeneID 782)", "PubChem SID": "SID164356238", "log2 vehicle/camptothecin viability": 0.736, "viability with camptothecin": 46.9}
{"gene": "CACNB1 (GeneID 782)", "PubChem SID": "SID164356239", "log2 vehicle/camptothecin viability": 0.0271, "viability with camptothecin": 89.9}

More reagents follow.
{"gene": "HPN (GeneID 3249)", "PubChem SID": "SID164369920", "log2 vehicle/camptothecin viability": -0.0107, "viability with camptothecin": 84}
{"gene": "HPN (GeneID 3249)", "PubChem SID": "SID164369921", "log2 vehicle/camptothecin viability": -0.162, "viability with camptothecin": 109}
{"gene": "HPN (GeneID 3249)", "PubChem SID": "SID164369922", "log2 vehicle/camptothecin viability": 0.242, "viability with camptothecin": 48.3}
{"gene": "HPN (GeneID 3249)", "PubChem SID": "SID164369926", "log2 vehicle/camptothecin viability": -0.00656, "viability with camptothecin": 58.9}
{"gene": "DLG1 (GeneID 1739)", "PubChem SID": "SID164361607", "log2 vehicle/camptothecin viability": -0.041, "viability with camptothecin": 92.7}
{"gene": "DLG1 (GeneID 1739)", "PubChem SID": "SID164361608", "log2 vehicle/camptothecin viability": -0.0724, "viability with camptothecin": 43.1}
{"gene": "DLG1 (GeneID 1739)", "PubChem SID": "SID164361610", "log2 vehicle/camptothecin viability": -0.417, "viability with camptothecin": 83.8}
{"gene": "DLG1 (GeneID 1739)", "PubChem SID": "SID164361613", "log2 vehicle/camptothecin viability": -0.191, "viability with camptothecin": 110}
{"gene": "DLG1 (GeneID 1739)", "PubChem SID": "SID164361614", "log2 vehicle/camptothecin viability": 0.626, "viability with camptothecin": 57.9}
{"gene": "DLG1 (GeneID 1739)", "PubChem SID": "SID164361615", "log2 vehicle/camptothecin viability": -0.485, "viability with camptothecin": 66.1}
